Source: the supplement of paper PMC8612539
≈ marks a conversion by molar mass, not a printed value. Further values from the same series stand in other lists.

Test system: Pasteurella multocida
Assay: minimum inhibitory concentration (MIC)
Experimental: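 Broth microdilution MIC (Sensititre BOPO7F bovine plate, CLSI methods) of 19 antimicrobials against field isolates of P. multocida, M. haemolytica, H. somni (deep nasopharyngeal swabs) and E. coli, Enterococcus spp. (rectal swabs) from weaned dairy heifers. Incubation 16-24 h at 35 C. MIC is the lowest concentration preventing visible growth. Values with <= or > lie at the tested range limits. Trimethoprim-sulfamethoxazole is given as the trimethoprim component of a 1:19 mixture.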

CC[C@H]1OC(=O)C[C@@H](O)[C@H](C)[C@@H](O[C@@H]2O[C@H](C)[C@@H](O)[C@H](N(C)C)[C@H]2O)[C@@H](CCN2CCCCC2)C[C@@H](C)C(=O)/C=C/C(C)=C/[C@@H]1CN1CCCCC1 [Tildipirosin]
Conditions	minimum inhibitory concentration [µg/mL]
isolate (source animal id): 30	> 16
isolate (source animal id): 34	> 16
isolate (source animal id): 36	> 16
isolate (source animal id): 37	> 16
isolate (source animal id): 46	≤ 1
isolate (source animal id): 48	> 16
isolate (source animal id): 49	> 16
isolate (source animal id): 54	> 16
isolate (source animal id): 55	> 16
isolate (source animal id): 58	≤ 1
isolate (source animal id): 60	> 16
isolate (source animal id): 61	> 16
isolate (source animal id): 63	> 16
isolate (source animal id): 64	≤ 1
isolate (source animal id): 65	> 16
isolate (source animal id): 66	> 16
isolate (source animal id): 67	> 16
isolate (source animal id): 69	> 16
isolate (source animal id): 73	> 16
isolate (source animal id): 75	> 16
isolate (source animal id): 76	> 16
isolate (source animal id): 77	> 16
isolate (source animal id): 78	> 16
isolate (source animal id): 80	> 16
isolate (source animal id): 82	> 16
isolate (source animal id): 83	> 16
isolate (source animal id): 88	> 16
isolate (source animal id): 92	> 16
isolate (source animal id): 94	> 16
isolate (source animal id): 318	> 16
isolate (source animal id): 319	> 16
isolate (source animal id): 320	> 16
isolate (source animal id): 321	> 16
isolate (source animal id): 322	> 16
isolate (source animal id): 324	> 16
isolate (source animal id): 325	> 16
isolate (source animal id): 328	> 16
isolate (source animal id): 330	> 16
isolate (source animal id): 331	≤ 1
isolate (source animal id): 333	> 16
isolate (source animal id): 336	> 16
isolate (source animal id): 337	> 16
isolate (source animal id): 339	> 16
isolate (source animal id): 340	> 16
isolate (source animal id): 341	> 16

CC[C@H]1OC(=O)C[C@@H](O)[C@H](C)[C@@H](O[C@@H]2O[C@H](C)[C@@H](O)[C@H](N(C)C)[C@H]2O)[C@@H](CCN2C[C@H](C)C[C@H](C)C2)C[C@@H](C)C(=O)/C=C/C(C)=C/[C@@H]1CO[C@@H]1O[C@H](C)[C@@H](O)[C@@H](OC)[C@H]1OC [Tilmicosin]
Conditions	minimum inhibitory concentration [µg/mL]
isolate (source animal id): 30	> 16
isolate (source animal id): 34	> 16
isolate (source animal id): 36	> 16
isolate (source animal id): 37	> 16
isolate (source animal id): 46	8 (≈ 9.2 µM)
isolate (source animal id): 48	> 16
isolate (source animal id): 49	> 16
isolate (source animal id): 54	> 16
isolate (source animal id): 55	> 16
isolate (source animal id): 58	4 (≈ 4.6 µM)
isolate (source animal id): 60	> 16
isolate (source animal id): 61	> 16
isolate (source animal id): 63	> 16
isolate (source animal id): 64	4 (≈ 4.6 µM)
isolate (source animal id): 65	> 16
isolate (source animal id): 66	> 16
isolate (source animal id): 67	> 16
isolate (source animal id): 69	> 16
isolate (source animal id): 73	> 16
isolate (source animal id): 75	> 16
isolate (source animal id): 76	> 16
isolate (source animal id): 77	> 16
isolate (source animal id): 78	> 16
isolate (source animal id): 80	> 16
isolate (source animal id): 82	> 16
isolate (source animal id): 83	> 16
isolate (source animal id): 88	> 16
isolate (source animal id): 92	> 16
isolate (source animal id): 94	> 16
isolate (source animal id): 318	> 16
isolate (source animal id): 319	> 16
isolate (source animal id): 320	> 16
isolate (source animal id): 321	> 16
isolate (source animal id): 322	> 16
isolate (source animal id): 324	> 16
isolate (source animal id): 325	> 16
isolate (source animal id): 328	> 16
isolate (source animal id): 330	> 16
isolate (source animal id): 331	8 (≈ 9.2 µM)
isolate (source animal id): 333	> 16
isolate (source animal id): 336	> 16
isolate (source animal id): 337	> 16
isolate (source animal id): 339	> 16
isolate (source animal id): 340	> 16
isolate (source animal id): 341	> 16

CCCNC[C@]1(O)[C@H](C)O[C@@H](O[C@H]2[C@H](C)[C@@H](O[C@@H]3O[C@H](C)C[C@H](N(C)C)[C@H]3O)[C@](C)(O)C[C@@H](C)CN[C@H](C)[C@@H](O)[C@](C)(O)[C@@H](CC)OC(=O)[C@@H]2C)C[C@@]1(C)OC [Tulathromycin]
Conditions	minimum inhibitory concentration [µg/mL]
isolate (source animal id): 30	32 (≈ 39.7 µM)
isolate (source animal id): 34	16 (≈ 19.8 µM)
isolate (source animal id): 36	16 (≈ 19.8 µM)
isolate (source animal id): 37	16 (≈ 19.8 µM)
isolate (source animal id): 46	≤ 8
isolate (source animal id): 48	16 (≈ 19.8 µM)
isolate (source animal id): 49	≤ 8
isolate (source animal id): 54	≤ 8
isolate (source animal id): 55	16 (≈ 19.8 µM)
isolate (source animal id): 58	≤ 8
isolate (source animal id): 60	≤ 8
isolate (source animal id): 61	32 (≈ 39.7 µM)
isolate (source animal id): 63	16 (≈ 19.8 µM)
isolate (source animal id): 64	≤ 8
isolate (source animal id): 65	32 (≈ 39.7 µM)
isolate (source animal id): 66	> 64
isolate (source animal id): 67	≤ 8
isolate (source animal id): 69	16 (≈ 19.8 µM)
isolate (source animal id): 73	≤ 8
isolate (source animal id): 75	≤ 8
isolate (source animal id): 76	16 (≈ 19.8 µM)
isolate (source animal id): 77	> 64
isolate (source animal id): 78	16 (≈ 19.8 µM)
isolate (source animal id): 80	16 (≈ 19.8 µM)
isolate (source animal id): 82	16 (≈ 19.8 µM)
isolate (source animal id): 83	16 (≈ 19.8 µM)
isolate (source animal id): 88	64 (≈ 79.4 µM)
isolate (source animal id): 92	> 64
isolate (source animal id): 94	≤ 8
isolate (source animal id): 318	≤ 8
isolate (source animal id): 319	≤ 8
isolate (source animal id): 320	16 (≈ 19.8 µM)
isolate (source animal id): 321	16 (≈ 19.8 µM)
isolate (source animal id): 322	≤ 8
isolate (source animal id): 324	> 64
isolate (source animal id): 325	≤ 8
isolate (source animal id): 328	≤ 8
isolate (source animal id): 330	16 (≈ 19.8 µM)
isolate (source animal id): 331	≤ 8
isolate (source animal id): 333	≤ 8
isolate (source animal id): 336	16 (≈ 19.8 µM)
isolate (source animal id): 337	≤ 8
isolate (source animal id): 339	16 (≈ 19.8 µM)
isolate (source animal id): 340	≤ 8
isolate (source animal id): 341	≤ 8

CC[C@H]1OC(=O)C[C@@H](O)[C@H](C)[C@@H](O[C@@H]2O[C@H](C)[C@@H](O[C@H]3C[C@@](C)(O)[C@@H](O)[C@H](C)O3)[C@H](N(C)C)[C@H]2O)[C@@H](CC=O)C[C@@H](C)C(=O)/C=C/C(C)=C/[C@@H]1CO[C@@H]1O[C@H](C)[C@@H](O)[C@@H](OC)[C@H]1OC [Tylosin]
Conditions	minimum inhibitory concentration [µg/mL]
isolate (source animal id): 30	> 32
isolate (source animal id): 34	> 32
isolate (source animal id): 36	> 32
isolate (source animal id): 37	> 32
isolate (source animal id): 46	32 (≈ 34.9 µM)
isolate (source animal id): 48	> 32
isolate (source animal id): 49	> 32
isolate (source animal id): 54	> 32
isolate (source animal id): 55	> 32
isolate (source animal id): 58	32 (≈ 34.9 µM)
isolate (source animal id): 60	> 32
isolate (source animal id): 61	> 32
isolate (source animal id): 63	> 32
isolate (source animal id): 64	32 (≈ 34.9 µM)
isolate (source animal id): 65	> 32
isolate (source animal id): 66	> 32
isolate (source animal id): 67	> 32
isolate (source animal id): 69	> 32
isolate (source animal id): 73	> 32
isolate (source animal id): 75	> 32
isolate (source animal id): 76	> 32
isolate (source animal id): 77	> 32
isolate (source animal id): 78	> 32
isolate (source animal id): 80	> 32
isolate (source animal id): 82	> 32
isolate (source animal id): 83	> 32
isolate (source animal id): 88	> 32
isolate (source animal id): 92	> 32
isolate (source animal id): 94	> 32
isolate (source animal id): 318	> 32
isolate (source animal id): 319	> 32
isolate (source animal id): 320	> 32
isolate (source animal id): 321	> 32
isolate (source animal id): 322	> 32
isolate (source animal id): 324	> 32
isolate (source animal id): 325	> 32
isolate (source animal id): 328	> 32
isolate (source animal id): 330	> 32
isolate (source animal id): 331	> 32
isolate (source animal id): 333	> 32
isolate (source animal id): 336	> 32
isolate (source animal id): 337	> 32
isolate (source animal id): 339	> 32
isolate (source animal id): 340	> 32
isolate (source animal id): 341	> 32

COc1cc(NS(=O)(=O)c2ccc(N)cc2)nc(OC)n1 [sulfadimethoxine]
Conditions	minimum inhibitory concentration [µg/mL]
isolate (source animal id): 30	> 256
isolate (source animal id): 34	> 256
isolate (source animal id): 36	> 256
isolate (source animal id): 37	> 256
isolate (source animal id): 46	> 256
isolate (source animal id): 48	> 256
isolate (source animal id): 49	> 256
isolate (source animal id): 54	> 256
isolate (source animal id): 55	> 256
isolate (source animal id): 58	> 256
isolate (source animal id): 60	> 256
isolate (source animal id): 61	> 256
isolate (source animal id): 63	> 256
isolate (source animal id): 64	> 256
isolate (source animal id): 65	> 256
isolate (source animal id): 66	> 256
isolate (source animal id): 67	> 256
isolate (source animal id): 69	> 256
isolate (source animal id): 73	> 256
isolate (source animal id): 75	> 256
isolate (source animal id): 76	> 256
isolate (source animal id): 77	> 256
isolate (source animal id): 78	> 256
isolate (source animal id): 80	> 256
isolate (source animal id): 82	> 256
isolate (source animal id): 83	> 256
isolate (source animal id): 88	> 256
isolate (source animal id): 92	> 256
isolate (source animal id): 94	> 256
isolate (source animal id): 318	> 256
isolate (source animal id): 319	> 256
isolate (source animal id): 320	> 256
isolate (source animal id): 321	> 256
isolate (source animal id): 322	> 256
isolate (source animal id): 324	> 256
isolate (source animal id): 325	> 256
isolate (source animal id): 328	> 256
isolate (source animal id): 330	> 256
isolate (source animal id): 331	> 256
isolate (source animal id): 333	> 256
isolate (source animal id): 336	> 256
isolate (source animal id): 337	> 256
isolate (source animal id): 339	> 256
isolate (source animal id): 340	> 256
isolate (source animal id): 341	> 256
